Measured values taken from patent US9987276B2.

Columns and labels:
Assay type in all cases: cell-based
[1] = tested on: DOHH2; test: B cell lymphoma proliferation assay, DOHH2; details: read-out: EC50 (μM) DOHH2
[2] = tested on: WSU-DLCL2; test: B cell lymphoma proliferation assay, WSU-DLCL2; details: read-out: EC50 (μM) WSU-DLCL2
[3] = tested on: DHL4; test: B cell lymphoma proliferation assay, DHL4; details: read-out: EC50 (μM) DHL4

Measured: EC50

C=CC(=O)N1CCOc2ccc(Nc3nc(Nc4ccc5cnn(C)c5c4)ncc3C(C)=O)cc21
1 to 10 µM: all assays above

Structures were worked out from names or drawings and are uncertain.
